The values below come from ChEMBL document CHEMBL1151088 (1996).

≈ marks a conversion by molar mass, not a printed value.

The test relates to Escherichia coli. The test is described as follows: In vitro antimicrobial activity against Escherichia coli 182+PMBN. Format: functional.

Turning to `CN[C@H](CC(C)C)C(=O)N[C@H]1C(=O)N[C@@H](CC(N)=O)C(=O)N[C@H]2C(=O)N[C@H]3C(=O)N[C@H](C(=O)N[C@H](C(=O)O)c4cc(O)cc(O)c4-c4cc3ccc4O)[C@H](O)c3ccc(c(Cl)c3)Oc3cc2cc(c3O[C@@H]2O[C@H](CO)[C@@H](O)[C@H](O)[C@H]2O[C@H]2C[C@](C)(N)[C@H](O)[C@H](C)O2)Oc2ccc(cc2Cl)[C@H]1O` [VANCOMYCIN], the MIC came out at 0.12 µg/mL (≈ 0.0828 µM).

As a reminder, the MIC is the least concentration at which growth counts as inhibited. The low end stands for a more susceptible organism, the high end for a less susceptible organism.
